Reference: PMC6453917 (Scientific Reports, 2019)

Test: general procedure: Fmoc solid-phase peptide synthesis; Tentagel-S-NH2 resin, 0.26 mmol/g, functionalized with Fmoc-Rink amide linker; TBTU/HOBt/DIPEA; HATU/DIPEA for DPra and DAza
Settings: whole synthesis, TFA salt; for final LC-MS purity: analytical UPLC-MS, scale of the general procedure 0.1 mmol; for isolated yield: overall, scale 0.1 mmol

Substance: H-Y[dDap(N3)]GF[dPra]-NH2 (triazole 2-5; SMILES NC(=O)[C@H]1Cc2cn(nn2)C[C@@H](NC(=O)[C@@H](N)Cc2ccc(O)cc2)C(=O)NCC(=O)N[C@@H](Cc2ccccc2)C(=O)N1)
- final LC-MS purity: ≥95%
- isolated yield: 12% overall yield

Substance: H-Y[dPra]GF[dDap(N3)]-NH2 (triazole 2-5; SMILES NC(=O)[C@H]1Cn2cc(nn2)C[C@@H](NC(=O)[C@@H](N)Cc2ccc(O)cc2)C(=O)NCC(=O)N[C@@H](Cc2ccccc2)C(=O)N1)
- final LC-MS purity: ≥95%
- isolated yield: 15% overall yield

Bridges are numbered along the chain shown (N, C = ends). Triazole bridges read from a SMILES are 1,4-linked. [ ]: non-standard residue; d: D form. dDap(N3) = [N-]=[N+]=NC[C@@H](N)C(=O)O; dPra = C#CC[C@@H](N)C(=O)O
